Reference: PubChem BioAssay AID652259 (Drosophila RNAi Screening Center, 2013)
The screen tested about 22,000 reagents; shown is a random part of those that have a named target and a result. Of all reagents, 233 (1.1%) were called active. 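Light values are raw, unnormalised plate reads; the ratio scores behind the reporter calls were not deposited.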 Unmarked entries are inactive. A plus sign joins genes that one reagent is predicted to hit. The record does not give: the amount of reagent, the time to read-out, the dose of the treatment.

Aim: 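Genome-wide hunt for genes that control Wingless pathway activity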 (primary screen)
Cells: Drosophila clone 8 imaginal disc epithelial cells
Reagents: long dsRNA against Drosophila genes
Conditions: pathway stimulated by co-transfected Wingless expression plasmid
Measured: 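Firefly luciferase from a tcf-site Wingless reporter, measured alongside co-transfected Renilla luciferase that tracks transfection; pathway stimulated by a Wingless plasmid; the firefly-to-Renilla ratio is not deposited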
Reading the numbers: firefly reporter light: higher = more Wg reporter light, before normalisation; Renilla control light: higher = more transfected or surviving cells
Hit rule: 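Strong candidates differ from their plate mean by at least two out of four per-plate statistical tests; weak candidates meet just one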
Calls: active = candidate regulator (raises or lowers reporter); inactive = not a candidate

target gene,dsRNA,"reporter change call, replicate 1","firefly reporter light, replicate 1","firefly reporter light, replicate 2","Renilla control light, replicate 1","Renilla control light, replicate 2"
CG10492,DRSC02064,,9737,,483,
CG33673,DRSC00084,,24124,,12433,
WDR79 (WD repeat domain 79),DRSC03159,,7485,,3600,
sut2 (sugar transporter 2),DRSC07701,,7116,,1920,
CG33229,DRSC07863,,3906,,1840,
CG10550,DRSC14251,,2359,5725,1092,625
CG32712,DRSC17820,,3981,9064,533,1719
CNT2 (Concentrative nucleoside transporter 2),DRSC07073,,7362,,2756,
CG3038,DRSC18618,,28176,,17373,
Or85f (Odorant receptor 85f),DRSC16769,,12944,,3995,
CG13606,DRSC14609,,16701,,18102,
Coprox (Coproporphyrinogen oxidase),DRSC01996,,11463,8.58e5,2919,4.65e5
CG4066,DRSC15541,,12715,,4918,
Frq2 (Frequenin 2),DRSC20245,,24085,,9173,
CG3156,DRSC18503,,2360,8617,1459,2838
Eph (Eph receptor tyrosine kinase),DRSC17164,,20754,,14082,
Glyp (Glycogen phosphorylase),DRSC00752,,3568,,664,
PolZ1 (DNA polymerase zeta subunit 1),DRSC06800,,10474,,3640,
CG8507,DRSC16435,,12528,,3360,
CG12204,DRSC19442,,2987,5948,1348,1080
bcd (bicoid),DRSC12624,,7824,,2828,
CG14932,DRSC02414,,3328,5712,1228,2756
Toll-4,DRSC03458,,3201,3529,835,1765
CG8813,DRSC00706,,10161,,3514,
Cyp4ae1 (Cytochrome P450 4ae1),DRSC18455,,2790,4664,1200,1506
CG16736,DRSC15145,,15675,,4064,
Sox21b,DRSC10025,,6631,,2300,
Sox21b,DRSC10634,,7722,,885,
Sox21b,DRSC22788,,8.07e5,8.08e5,1.09e5,1.74e5

A stretch from the list above:
target gene,dsRNA,"reporter change call, replicate 1","firefly reporter light, replicate 1","firefly reporter light, replicate 2","Renilla control light, replicate 1","Renilla control light, replicate 2"
Or85f (Odorant receptor 85f),DRSC16769,,12944,,3995,
CG13606,DRSC14609,,16701,,18102,
Coprox (Coproporphyrinogen oxidase),DRSC01996,,11463,8.58e5,2919,4.65e5

Continued.
target gene,dsRNA,"reporter change call, replicate 1","firefly reporter light, replicate 1","firefly reporter light, replicate 2","Renilla control light, replicate 1","Renilla control light, replicate 2"
"Edem2 (ER degradation enhancer, mannosidase alpha-like 2)",DRSC02877,,3562,11111,1878,5449
CG7878,DRSC16330,,14182,,3066,
Ect3 (Ectoderm-expressed 3),DRSC15462,,18567,,7584,
Agps (Alkylglycerone phosphate synthase),DRSC05984,,6251,,2069,
Bap170 (Brahma associated protein 170kD),DRSC04964,,18273,,8480,
Bap170 (Brahma associated protein 170kD),DRSC21826,,5.85e5,6.21e5,3.41e5,2.81e5
CG33189,DRSC21427,,6.21e5,7.05e5,3.80e5,2.99e5
CG5273,DRSC18612,,19452,,13296,
CG5681,DRSC02876,,2720,6872,901,3821
mkg-p (monkey king protein),DRSC10777,,3479,,1766,
CG13670,DRSC10029,,1323,8864,1124,3971
CG15530,DRSC15067,,9460,,3424,
CG4970,DRSC02796,Wg reporter activity raised,4546,10240,568,4056
CG11786,DRSC14389,,20192,,17402,
slou (slouch),DRSC17058,,36045,,6874,
Lcp1 (Larval cuticle protein 1),DRSC07455,,3760,7203,803,1222
Meltrin,DRSC16274,,7203,,2588,
Meltrin,DRSC21693,,4.76e5,4.19e5,1.95e5,1.83e5
Ubx (Ultrabithorax),DRSC16891,,22137,,6744,
"Alg1 (ALG1, chitobiosyldiphosphodolichol beta-mannosyltransferase)",DRSC15297,,2486,8517,1445,2221
CG31821,DRSC22162,,4.58e5,5.17e5,1.77e5,2.08e5
snz (snazarus),DRSC17969,,28002,,12374,
eIF4G2 (eukaryotic translation initiation factor 4G2),DRSC14207,,5111,7908,2387,2484
eIF4G2 (eukaryotic translation initiation factor 4G2),DRSC21739,,3.59e5,4.08e5,88233,89502
Kap-alpha3 (karyopherin alpha3),DRSC16976,,17526,,2537,
Hcs (Holocarboxylase synthetase),DRSC12070,,4848,,1721,
Hcs (Holocarboxylase synthetase),DRSC12256,,8648,,2007,
shps (sheepish),DRSC14614,,13190,,13915,
Ahcy (Adenosylhomocysteinase),DRSC19329,,1338,6742,600,1817
CG1077,DRSC12146,,16326,8.93e5,5168,4.64e5
Shawn + Tyler,DRSC19564,,2662,8316,800,1748
Shawn + Tyler,DRSC19565,,18969,,12355,
Max,DRSC11218,,8040,,3019,
l(1)sc (lethal of scute),DRSC18789,,21750,,13408,
Gr58b (Gustatory receptor 58b),DRSC04140,,2458,4412,739,1824
Glut3 (Glucose transporter type 3),DRSC16681,,17030,,4731,
St2 (Sulfotransferase 2),DRSC15142,,18812,,5808,
St2 (Sulfotransferase 2),DRSC22624,,6.15e5,6.43e5,2.31e5,2.22e5
CG17385,DRSC06664,,6864,,2240,
Obp50c + Obp50b,DRSC05482,,16752,,13869,
Dbp45A (DEAD box protein 45A),DRSC07395,,9272,,2785,
CG16854,DRSC02536,,3003,8072,1232,4380
His2B:CG33894 + His2B:CG33872 + His2B:CG33902 + 20 more,DRSC21265,,17531,,193,
zyd (zydeco),DRSC20716,,20881,,10241,
